No constants are given. Whether binding was seen depends on the method and setting. Binding seen in cells or lysates may run through a third protein. Some results given as binding are weak or reduced against the parent protein; the word gives no strength.

The chains behind the UniProt entries cited, without tags or fusion partners. Where a name states a change or a piece, a line headed by the entry shows the natural chain unless it says otherwise.
UniProt Q00613: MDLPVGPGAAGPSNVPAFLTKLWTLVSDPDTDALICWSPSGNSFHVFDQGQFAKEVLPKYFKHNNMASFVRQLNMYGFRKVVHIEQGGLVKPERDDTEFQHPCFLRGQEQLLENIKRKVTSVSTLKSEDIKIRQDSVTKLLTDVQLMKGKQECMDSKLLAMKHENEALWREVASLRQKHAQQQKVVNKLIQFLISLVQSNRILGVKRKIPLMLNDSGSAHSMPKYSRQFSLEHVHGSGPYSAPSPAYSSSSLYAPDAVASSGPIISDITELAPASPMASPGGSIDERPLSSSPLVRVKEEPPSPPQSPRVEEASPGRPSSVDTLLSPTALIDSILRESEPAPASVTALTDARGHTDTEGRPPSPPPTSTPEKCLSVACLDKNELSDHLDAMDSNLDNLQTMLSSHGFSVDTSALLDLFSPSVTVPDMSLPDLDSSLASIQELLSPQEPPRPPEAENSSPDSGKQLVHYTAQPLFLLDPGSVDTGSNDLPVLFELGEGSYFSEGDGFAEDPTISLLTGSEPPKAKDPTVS

This experiment has as its target T1, SSBP1, endogenous in HEK293 cells (human (endogenous in HEK293)) (UniProt Q04837).
T1 sequence: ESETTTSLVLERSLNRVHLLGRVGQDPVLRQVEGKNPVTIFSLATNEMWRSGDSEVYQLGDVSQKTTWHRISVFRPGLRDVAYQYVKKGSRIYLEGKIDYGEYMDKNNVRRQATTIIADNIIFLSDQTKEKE
Nature of the experiment: co-IP; HEK293 cells transfected with Flag-tagged hHSF1 or a point mutant, NP-40 lysis buffer; precipitated with rabbit antiserum for SSBP1 at 4 °C for 1 h, protein A- or protein G-Sepharose; blotted with Flag (M2) or SSBP1 antibody.
For “Flag-tagged hHSF1-K188G (from UniProt Q00613 1-529)”, the binding result was “no binding”.

On to “Flag-tagged hHSF1-K188A (from UniProt Q00613 1-529)”, for which the binding entry is given as “no binding”.

As to “Flag-tagged hHSF1-K188R (from UniProt Q00613 1-529)”, the binding entry is on record as “binds”.

For “Flag-tagged hHSF1 (wild type) (from UniProt Q00613 1-529)”, the binding result is “binds”.

(Values after paper PMC4558571.)
